From patent US8304371B2, “Insecticidal arylpyrrolines” (Bayer Cropscience AG, priority 2008, dated 2012)
Some of these results come from one statement about several compounds together.

Tests used:
Assay type in all cases: in vivo
[1] = test system: Tobacco Cutworm (Spodoptera litura) Larvae; experiment: Test against tobacco cutworm (Spodoptera litura) larvae, leaf dip; conditions: active compound concentration 100 ppm; third-instar larvae; after 7 days
Procedure: (§1) Unless nomentioned otherwise, the test solutions were prepared as follows:
(§2) Containing as solvent: Dimethylformamide, 3 parts by weight; and as emulsifier: Polyoxyethylene alkyl phenyl ether, 1 part by weight
(§3) To prepare the test solution, 1 part by weight of an active compound is mixed with the above-mentioned amount of solvent containing the above-mentioned amount of emulsifier, and the mixture is diluted with water to the desired concentration.
The leaves of sweet potato were immersed in the test solution at the appropriate concentration, and the leaves were dried in air. The leaves were then placed in a petri dish having a diameter of 9 cm, and ten third-instar larvae of tobacco cutworm were released therein. The petri dish was placed in a temperature chamber at 25° C. After 2 days and 4 days sweet potato leaves were additionally added. After 7 days, the number of dead larvae was counted, to calculate the insecticidal activity. An insecticidal activity of 100% means that all larvae were killed, whereas an insecticidal activity of 0% means that no larva was killed. In the current test, the results of two petri dishes for each partition were averaged.

[2] = test system: Cat Fleas (Ctenocephalides fells); experiment: Test against cat fleas, blood feeding; conditions: active compound concentration 100 ppm in blood; adult fleas; after 2 days
Procedure: (§4) Solvent: Dimethylsulfoxide
About 10 to 15 adult cat fleas are provided in a container exclusive for fleas. An exclusive container containing the test solution is covered with Parafilm, reversed upside down, and then mounted on top of the flea container, so that the cat fleas can suck the blood in the container. The test solution is maintained at 37° C., and the flea container is maintained at room temperature. After 2 days the mortality rate of the cat fleas is measured. 100% means that all of the cat fleas have been killed, while 0% means that all are alive.

[3] = test system: Sheep Blowfly (Lucillia cuprina); experiment: Test against sheep blowfly; conditions: active compound concentration 100 ppm; after 2 days
Procedure: as §4
(§5) In order to make a suitable test solution, 10 mg of an active compound is dissolved in 0.5 ml of the solvent, and the mixture is diluted with water to a predetermined concentration.
Minced horse meat having a size of 1 square centimeter, and 0.5 ml of the test solution are placed in a test tube, and about 20 to 30 adult sheep blowflies are introduced therein.
After 2 days the mortality rate of the sheep blowflies is measured. 100% means that all of the sheep blowflies have been killed, and 0% means that all are alive.

[4] = test system: Strain of Green Peach Aphid (Mvzus persicas) which is Resistant to Organic Phosphorus and Carbamate Agents; experiment: Test against resistant green peach aphid, spray on egg plant; conditions: active compound concentration 100 ppm; after 7 days
Procedure: as §1, §2, §3
About 30 to 50 of the resistant green peach aphids were inoculated per seedling, onto the leaves of egg plant at the two-true leaf stage, which plant had been cultivated in a pot having a diameter of 6 cm. One day after the inoculation, the test solution at the appropriate concentration was sprayed thereon in a sufficient amount using a spray gun. After the spraying, the plant pot was placed in a greenhouse at 28° C., and after 7 days, the insecticidal activity was calculated. An insecticidal activity of 100% means that all aphids were killed, whereas an insecticidal activity of […] means that no aphid was killed. The test was repeated two times.

[5] = test system: Housefly (Musca domestica); experiment: Test against housefly; conditions: active compound concentration 100 ppm; adult houseflies; after 2 days
Procedure: as §4, §5
In a preliminary stage of the test, a piece of sponge having a certain size is soaked with a mixture of sugar and the test solution is placed in a test container. Ten adult houseflies are introduced to the container, and the container is covered with a perforated lid.
After 2 days, the mortality rate of the houseflies is measured. At that time, 100% means that all of the houseflies have been killed, and 0% means that all are alive.

[6] = test system: Nymphs of the tick Amblyomma hebraeum; experiment: Amblyomma hebraeum test, nymph immersion; conditions: application rate 100 ppm; immersed one minute; after 2 days
Procedure: as §4
To produce a suitable preparation of active compound. 1 part by weight of active compound is mixed with the stated amount of solvent, and the concentrate is diluted with containing solvent to the desired concentration.
Nymphs of the tick Amblyomma hebraeum are placed in perforated plastic beakers and immersed in aqueous compound solution for one minute. Ticks are transferred to a filter paper in a Petri dish and incubated in a climate chamber for 42 days.
After 2 days mortality in % is determined. 100% means that all the ticks have been killed; 0% means that none of the ticks have been killed.

[7] = test system: Cattle Tick (Boophilus microplus); experiment: Test against cattle tick, injection; conditions: 20 μg/animal injected; after 7 days; 100% means that all eggs are infertile
Procedure: as §4
In order to make a suitable test solution, 10 mg of an active compound is dissolved in 0.5 ml of the above mentioned solvent, and the mixture is diluted with water to a predetermined concentration.
The test solution is injected into the abdomens of five fully-fed female adult cattle ticks. The cattle ticks are transferred to a replica plate, and are bred in a breeding vessel for a certain time period. Egg deposition of fertile eggs is monitored.
After 7 days the mortality rate of the cattle ticks is measured. 100% means that all eggs are infertile; and 0% means that all eggs are fertile.

CC(=O)NCc1ccc(C2=NCC(c3cc(Cl)c(Cl)c(Cl)c3)(C(F)(F)F)C2)cc1Br (stereo not drawn) [2-134]
≥ 80%: insecticidal activity [1] | mortality rate [2] | mortality rate [3] | insecticidal activity [4] | mortality rate [5] | activity (mortality in %) [6] | mortality rate [7]

CC(=O)NCc1ccc(C2=NCC(c3cc(Cl)c(Cl)c(C(F)(F)F)c3)(C(F)(F)F)C2)cc1Br (stereo not drawn) [2-139]
≥ 80%: insecticidal activity [1] | mortality rate [2] | mortality rate [3] | insecticidal activity [4] | mortality rate [5] | activity (mortality in %) [6] | mortality rate [7]

CCC(=O)NCc1ccc(C2=NCC(c3cc(Cl)c(Cl)c(C(F)(F)F)c3)(C(F)(F)F)C2)cc1Br (stereo not drawn) [2-147]
≥ 80%: insecticidal activity [1] | mortality rate [2] | mortality rate [3] | insecticidal activity [4] | mortality rate [5] | activity (mortality in %) [6] | mortality rate [7]

CCC(=O)NCc1ccc(C2=NCC(c3cc(Cl)c(Cl)c(Cl)c3)(C(F)(F)F)C2)cc1Cl (stereo not drawn) [2-157]
≥ 80%: mortality rate [2] | mortality rate [3] | insecticidal activity [4] | mortality rate [5] | activity (mortality in %) [6] | mortality rate [7]

O=C(NCc1ccc(C2=NCC(c3cc(Cl)c(Cl)c(Cl)c3)(C(F)(F)F)C2)cc1Cl)C1CC1 (stereo not drawn) [2-158]
≥ 80%: mortality rate [2] | mortality rate [3] | insecticidal activity [4] | mortality rate [5] | activity (mortality in %) [6] | mortality rate [7]

CCC(=O)NCc1ccc(C2=NCC(c3cc(Cl)c(Cl)c(Cl)c3)(C(F)(F)F)C2)cc1C(F)(F)F (stereo not drawn) [2-162]
≥ 80%: mortality rate [2] | mortality rate [3] | insecticidal activity [4] | mortality rate [5] | activity (mortality in %) [6] | mortality rate [7]

O=C(NCc1ccc(C2=NCC(c3cc(Cl)c(Cl)c(Cl)c3)(C(F)(F)F)C2)cc1C(F)(F)F)C1CC1 (stereo not drawn) [2-163]
≥ 80%: mortality rate [2] | mortality rate [3] | insecticidal activity [4] | mortality rate [5] | activity (mortality in %) [6] | mortality rate [7]

O=C(CC(F)(F)F)NCc1ccc(C2=NCC(c3cc(Cl)c(Cl)c(Cl)c3)(C(F)(F)F)C2)cc1C(F)(F)F (stereo not drawn) [2-164]
≥ 80%: mortality rate [2] | mortality rate [3] | insecticidal activity [4] | mortality rate [5] | activity (mortality in %) [6] | mortality rate [7]

O=C(CC(F)(F)F)NCc1ccc(C2=NCC(c3cc(Cl)c(Cl)c(C(F)(F)F)c3)(C(F)(F)F)C2)cc1Br (stereo not drawn) [2-173]
≥ 80%: mortality rate [2] | mortality rate [3] | insecticidal activity [4] | mortality rate [5] | activity (mortality in %) [6] | mortality rate [7]

O=C(CC(F)(F)F)NCc1ccc(C2=NCC(c3cc(Br)cc(Br)c3)(C(F)(F)F)C2)cc1Br (stereo not drawn) [2-177]
≥ 80%: insecticidal activity [1] | mortality rate [2] | mortality rate [3] | mortality rate [5] | activity (mortality in %) [6] | mortality rate [7]

CC(=O)NCc1ccc(C2=NCC(c3cc(Cl)c(Cl)c(Cl)c3)(C(F)(F)F)C2)c2ccccc12 (stereo not drawn) [11-5]
≥ 80%: mortality rate [2] | mortality rate [3] | insecticidal activity [4] | mortality rate [5] | activity (mortality in %) [6] | mortality rate [7]

O=C(NCc1ccc(C2=NCC(c3cc(Cl)c(Cl)c(Cl)c3)(C(F)(F)F)C2)c2ccccc12)C1CC1 (stereo not drawn) [11-7]
≥ 80%: mortality rate [2] | mortality rate [3] | insecticidal activity [4] | mortality rate [5] | activity (mortality in %) [6] | mortality rate [7]
